According to the supplement of paper PMC8866396:
± gives the standard deviation of the averaged measurements. The list shows a part of the results. Most values lie within the scatter of the assay; repeated measurements hardly agree.

Test system: IL-6-GFP PC-9
Test: IL-6-GFP fluorescence relative to DMSO control (fraction of control); higher = more IL-6-GFP expression
Settings: compound concentration: 10 uM; treatment time: 48 h
Procedure: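 IL-6-GFP-overexpressing PC-9 and PC-9GR EGFR-mutant lung cancer cells (3000 cells/well, 96-well) were treated for 48 h with each compound of the Selleck L2000 library at 10 uM. IL-6-GFP fluorescence was read on a high-content screening system, and viability by CCK-8 absorbance on a parallel plate set. Each value was normalised as compound well / DMSO control well; two independent replicates.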

CC(C)=CCC/C(C)=C/CC/C(C)=C/CCC(=O)OC/C=C(\C)CCC=C(C)C [Gefarnate]
IL-6-GFP fluorescence: 0.834 ± 0.11

COc1ccc2cc1Oc1ccc(cc1)CC1c3cc(c(OC)cc3CCN1C)Oc1c(OC)c(OC)cc3c1C(C2)N(C)CC3 (stereo not drawn) [Tetrandrine]
IL-6-GFP fluorescence: 0.672 ± 0.029

COc1ccc2cc1Oc1ccc(cc1)CC1c3cc(c(OC)cc3CCN1C)Oc1c(O)c(OC)cc3c1C(C2)N(C)CC3 (stereo not drawn) [Fangchinoline]
IL-6-GFP fluorescence: 0.733 ± 0.27

CC(CN1c2ccccc2Sc2ccccc21)N(C)C.Cl (stereo not drawn) [Promethazine HCl]
IL-6-GFP fluorescence: 1 ± 0.058

COc1c(OC2OC(CO)C(O)C(O)C2O)cc2c(c1OC)-c1ccc(SC)c(=O)cc1C(NC(C)=O)CC2 (stereo not drawn) [Thiocolchicoside]
IL-6-GFP fluorescence: 0.356 ± 0.011

C=C1c2cccc(O)c2C(=O)C2=C(O)C3(O)C(=O)C(C(N)=O)=C(O)C(N(C)C)C3C(O)C12.Cl (stereo not drawn) [Methacycline HCl]
IL-6-GFP fluorescence: 0.763 ± 0.23

CCC1(O)C(=O)OCc2c1cc1n(c2=O)Cc2cc3c(CN(C)C)c(O)ccc3nc2-1.Cl (stereo not drawn) [Topotecan HCl]
IL-6-GFP fluorescence: 2.2 ± 0.22

Cc1nnc(C(=O)NC(C)(C)c2nc(C(=O)NCc3ccc(F)cc3)c([O-])c(=O)n2C)o1.[K+] [Raltegravir potassium]
IL-6-GFP fluorescence: 0.842 ± 0.23

CC(C)c1nc(N(C)S(C)(=O)=O)nc(-c2ccc(F)cc2)c1/C=C/C(O)CC(O)CC(=O)O (stereo not drawn) [Rosuvastatin]
IL-6-GFP fluorescence: 0.8625 ± 0.005

CN(Cc1cnc2nc(N)nc(N)c2n1)c1ccc(C(=O)NC(CCC(=O)O)C(=O)O)cc1 (stereo not drawn) [Methotrexate]
IL-6-GFP fluorescence: 0.93 ± 0.016

CN1CCC(=C2c3ccccc3CCn3c(C=O)cnc32)CC1 [Alcaftadine]
IL-6-GFP fluorescence: 0.894 ± 0.015

CS(=O)(=O)O.Cc1ccc(NC(=O)c2ccc(CN3CCN(C)CC3)cc2)cc1Nc1nccc(-c2cccnc2)n1 [Imatinib Mesylate (STI571)]
IL-6-GFP fluorescence: 0.82 ± 0.1

Nc1nc(F)nc2c1ncn2C1OC(COP(=O)(O)O)C(O)C1O (stereo not drawn) [Fludarabine Phosphate]
IL-6-GFP fluorescence: 1.12 ± 0.089

CNC(=O)c1cc(Oc2ccc(NC(=O)Nc3ccc(Cl)c(C(F)(F)F)c3)cc2)ccn1.Cc1ccc(S(=O)(=O)O)cc1 [Sorafenib Tosylate]
IL-6-GFP fluorescence: 0.886 ± 0.14

Nc1n[n+]([O-])c2ccccc2[n+]1[O-] [Tirapazamine]
IL-6-GFP fluorescence: 1.02 ± 0.26

CNNCc1ccc(C(=O)NC(C)C)cc1.Cl [Procarbazine HCl]
IL-6-GFP fluorescence: 1.19 ± 0.083

CC(NCc1ccc(OCc2cccc(F)c2)cc1)C(N)=O.CS(=O)(=O)O (stereo not drawn) [Safinamide Mesylate]
IL-6-GFP fluorescence: 0.904 ± 0.07

CCC(C)C(=O)OC1CC(O)C=C2C=CC(C)C(CCC(O)CC(O)CC(=O)[O-])C21.[Na+] (stereo not drawn) [Pravastatin sodium]
IL-6-GFP fluorescence: 0.779 ± 0.18

CN1CCC(=C2c3ccccc3CCc3cccnc32)CC1.O=C(O)/C=C\C(=O)O.O=C(O)/C=C\C(=O)O [Azatadine dimaleate]
IL-6-GFP fluorescence: 0.971 ± 0.06

Nc1ccc(F)cc1NC(=O)c1ccc(CNC(=O)/C=C/c2cccnc2)cc1 [Tucidinostat (Chidamide)]
IL-6-GFP fluorescence: 0.94 ± 0.28

CC1(C)OC2CC3C4CCC5=CC(=O)C=CC5(C)C4C(O)CC3(C)C2(C(=O)CO)O1 (stereo not drawn) [Desonide]
IL-6-GFP fluorescence: 0.85 ± 0.11

CO/N=C(\C(=O)NC1C(=O)N2C(C(=O)OCOC(=O)C(C)(C)C)=C(C)CSC12)c1csc(N)n1.Cl (stereo not drawn) [Cefetamet pivoxil hydrochloride]
IL-6-GFP fluorescence: 0.935 ± 0.12

NC(CO)(CO)CO [Trometamol]
IL-6-GFP fluorescence: 0.885 ± 0.046

CC(Oc1cc(-c2cnn(C3CCNCC3)c2)cnc1N)c1c(Cl)ccc(F)c1Cl [(S)-crizotinib]
IL-6-GFP fluorescence: 1 ± 0.18

CCCCOc1ccc(C(=O)CCN2CCCCC2)cc1.Cl [Dyclonine HCl]
IL-6-GFP fluorescence: 0.844 ± 0.22

NC(CC(=O)N1CCn2c(nnc2C(F)(F)F)C1)Cc1cc(F)c(F)cc1F (stereo not drawn) [Sitagliptin]
IL-6-GFP fluorescence: 0.824 ± 0.19

CCOC(=O)c1c(N)sc2c1CCN(Cc1ccccc1)C2.Cl [Tinoridine hydrochloride]
IL-6-GFP fluorescence: 1.15 ± 0.093

CC/C(=C(/CC)c1ccc(O)cc1)c1ccc(O)cc1 [Diethylstilbestrol]
IL-6-GFP fluorescence: 0.966 ± 0.11

CC(C)C(=O)Nc1ccc([N+](=O)[O-])c(C(F)(F)F)c1 [Flutamide]
IL-6-GFP fluorescence: 0.933 ± 0.22

C/C=C(/C)C(=O)OC1C(OC(C)=O)C2(CO)C(O)CC3(C)C(=CCC4C5(C)CCC(OC6OC(C(=O)O)C(OC7OC(CO)C(O)C(O)C7O)C(O)C6OC6OC(CO)C(O)C(O)C6O)C(C)(CO)C5CCC43C)C2CC1(C)C (stereo not drawn) [Escin]
IL-6-GFP fluorescence: 0.915 ± 0.067

CN1C(C(=O)Nc2ccccn2)=C(O)c2sc(Cl)cc2S1(=O)=O [Lornoxicam]
IL-6-GFP fluorescence: 0.625 ± 0.21

CCOc1ccc(Cc2cc(C3OC(CO)C(O)C(O)C3O)ccc2Cl)cc1 (stereo not drawn) [Dapagliflozin]
IL-6-GFP fluorescence: 1.28 ± 0.39

CCC1/C=C(\C)CC(C)CC(OC)C2OC(O)(C(=O)C(=O)N3CCCCC3C(=O)OC(/C(C)=C/C3CCC(Cl)C(OC)C3)C(C)C(O)CC1=O)C(C)CC2OC (stereo not drawn) [Pimecrolimus]
IL-6-GFP fluorescence: 0.781 ± 0.093

N#Cc1cc(NC(=O)C(=O)O)c(Cl)c(NC(=O)C(=O)O)c1.NC(CO)(CO)CO.NC(CO)(CO)CO [Lodoxamide Tromethamine]
IL-6-GFP fluorescence: 0.427 ± 0.11

CN1CCC(=C2c3ccccc3CCc3sccc32)CC1.O=C(O)CC(O)C(=O)O [Pizotifen Malate]
IL-6-GFP fluorescence: 1.1 ± 0.44

O=c1oc2cc(O)ccc2s1 [Tioxolone]
IL-6-GFP fluorescence: 0.874 ± 0.42

CCS(=O)(=O)N1CC(CC#N)(n2cc(-c3ncnc4[nH]ccc34)cn2)C1.O=P(O)(O)O [Baricitinib phosphate]
IL-6-GFP fluorescence: 0.961 ± 0.034

COc1cc2c(Oc3ccc4[nH]c(C)cc4c3F)ccnc2cc1OCC1(N)CC1.Cl.Cl [Anlotinib (AL3818) dihydrochloride]
IL-6-GFP fluorescence: 0.784 ± 0.41

CC1CC2C3CCC4=CC(=O)C=CC4(C)C3(F)C(O)CC2(C)C1(O)C(=O)COP(=O)([O-])[O-].[Na+].[Na+] (stereo not drawn) [Dexamethasone Sodium Phosphate]
IL-6-GFP fluorescence: 0.853 ± 0.23

COC(=O)NC(C(=O)N1CCCC1c1ncc(-c2ccc3c(c2)OC(c2ccccc2)n2c-3cc3cc(-c4cnc(C5CCCN5C(=O)C(NC(=O)OC)C(C)C)[nH]4)ccc32)[nH]1)C(C)C (stereo not drawn) [Elbasvir]
IL-6-GFP fluorescence: 2.06 ± 0.29

O=C(CCCCCCC(=O)Nc1ccccc1)NO [Vorinostat (SAHA, MK0683)]
IL-6-GFP fluorescence: 1.11 ± 0.041

CCC(c1ccc(O)cc1)C(CC)c1ccc(O)cc1 (stereo not drawn) [Hexestrol]
IL-6-GFP fluorescence: 0.78 ± 0.18

C1N2CN3CN1CN(C2)C3 [Methenamine]
IL-6-GFP fluorescence: 1.56 ± 0.9
